{"source": "the supplement of paper PMC7024190", "note": "Counter-ions that a name gives are not always drawn. The list shows a part of the results. Repeats in this data set agree poorly, so a single value says little.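 The cells were human embryonic kidney cells carrying a Renilla luciferase gene, driven by the HSV-TK promoter, on a plasmid put in briefly by transfection. This is the first-round screen of about ten thousand compounds, looking for ones that raise reporter output.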"}
{"tested_on": "HEK 293FT", "assay": "log relative Renilla luciferase luminescence (reporter expression vs reference, reference not stated) (log (base not stated)); higher = higher recombinant reporter expression", "settings": "10 µM; time after transfection 48 h"}
{"smiles": "Cn1c(=O)c2[nH]c(-c3ccc(O)cc3)nc2n(C)c1=O", "log": -0.167}
{"smiles": "COc1ccc2c(c1OC)CN(C)CCc1cc3c(cc1C(=O)C2)OCO3", "note": "[Allocryptopine]", "log": 0.169}
{"smiles": "O=C(N/N=C/c1ccc(O)c(O)c1)c1ccncc1", "note": "[Protozide]", "log": 0.0148}
{"smiles": "CN(C)CCC(c1ccc(Br)cc1)c1ccccn1", "note": "(stereo not given) [Brompheniramine Maleate]", "log": -0.0398}
{"smiles": "CC(C)Cn1cnc2c1c(=O)n(C)c(=O)n2C", "note": "[Isbufylline]", "log": 0.0125}
{"smiles": "CC1(C)S[C@@H]2[C@H](NC(=O)COc3ccccc3)C(=O)N2[C@H]1C(=O)O", "note": "[Phenoxymethylpenicillin]", "log": -0.0398}
{"smiles": "CCCOc1ccc2nc(NC(=O)OC)sc2c1", "note": "[Tioxidazole]", "log": 0.0367}
{"smiles": "CC(C)NCC(O)c1ccc(NS(C)(=O)=O)cc1", "note": "(stereo not given) [Sotalol Hydrochloride]", "log": -0.034}
{"smiles": "COc1ccc2ccc(=O)oc2c1OCC=C(C)C", "note": "[7-Methoxy-8-prenyloxycoumarin]", "log": 0.0279}
{"smiles": "CCn1cc(C(=O)O)c(=O)c2ccc(C)nc21", "note": "[Nalidixic acid]", "log": -0.128}
{"smiles": "CCCCCCCCCCCCCCCCCCCCCCCCCCCCCCC", "note": "[Hentriacontane]", "log": 0.116}
{"smiles": "CC1=C(C(=O)O)N2C(=O)[C@@H](NC(=O)[C@H](N)c3ccc(O)cc3)[C@H]2SC1", "note": "[Cefadroxil]", "log": 0.166}
{"smiles": "COc1c(N2CCNC(C)C2)c(F)cc2c(=O)c(C(=O)O)cn(C3CC3)c12", "note": "(stereo not given) [Gatifloxacin]", "log": 0.0854}
{"smiles": "CCN(CC)Cc1cc(Nc2ccnc3cc(Cl)ccc23)ccc1O", "note": "[Amodiaquine]", "log": -0.0282}
{"smiles": "O=C(O)c1cc(-c2ccccc2)nc2ccccc12", "note": "[Cinchophen]", "log": 0.118}
